Assay results published in article PMC10693155.
These are yes or no findings as the source states them, for the method shown. Binding seen in cells or lysates may run through a third protein. Some binding calls cover weakened binding; strength is not graded here.

By UniProt entry, the sequences of proteins in these tests, tags left out.
UniProt Q86TM6: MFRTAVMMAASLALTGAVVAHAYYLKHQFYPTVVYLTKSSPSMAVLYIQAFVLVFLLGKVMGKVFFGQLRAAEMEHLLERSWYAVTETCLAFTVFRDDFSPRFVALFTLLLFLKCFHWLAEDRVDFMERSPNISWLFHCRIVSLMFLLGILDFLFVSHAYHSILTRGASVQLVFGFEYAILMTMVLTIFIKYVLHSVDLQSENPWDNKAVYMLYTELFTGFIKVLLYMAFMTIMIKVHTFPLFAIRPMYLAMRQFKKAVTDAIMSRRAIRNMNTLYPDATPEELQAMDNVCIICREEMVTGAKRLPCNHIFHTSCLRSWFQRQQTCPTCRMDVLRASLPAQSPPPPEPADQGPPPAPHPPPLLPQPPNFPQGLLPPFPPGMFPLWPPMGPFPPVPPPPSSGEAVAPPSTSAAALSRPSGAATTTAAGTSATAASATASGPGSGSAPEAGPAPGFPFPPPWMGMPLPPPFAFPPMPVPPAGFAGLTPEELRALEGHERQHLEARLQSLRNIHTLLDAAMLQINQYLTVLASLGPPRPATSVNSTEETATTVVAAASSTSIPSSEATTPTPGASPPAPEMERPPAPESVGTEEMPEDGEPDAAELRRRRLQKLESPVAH

Biological target: T1, SIRT2 (Sirtuin 2) (human (endogenous in BEAS-2B)) (UniProt Q8IXJ6)
T1 sequence: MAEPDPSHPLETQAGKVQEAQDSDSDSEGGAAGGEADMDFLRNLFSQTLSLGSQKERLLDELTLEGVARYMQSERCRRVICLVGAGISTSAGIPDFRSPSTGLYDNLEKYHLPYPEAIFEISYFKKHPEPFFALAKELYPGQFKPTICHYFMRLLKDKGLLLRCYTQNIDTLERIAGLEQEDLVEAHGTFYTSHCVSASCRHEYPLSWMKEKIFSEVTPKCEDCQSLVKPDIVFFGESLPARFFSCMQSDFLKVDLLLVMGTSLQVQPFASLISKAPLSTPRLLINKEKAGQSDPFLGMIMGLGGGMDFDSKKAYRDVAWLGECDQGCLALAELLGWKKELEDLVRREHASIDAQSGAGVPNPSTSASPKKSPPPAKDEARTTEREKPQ
Assay: co-IP; Pierce Co-IP kit; BEAS-2B cells pretreated with 10 µM MG132 for 6 h, lysed in immunoprecipitation buffer; SIRT2 antibody immobilised on AminoLink Plus Coupling Resin; Western blot for SYVN1; cells with or without TGF-β1 treatment

Substance: SYVN1 (Synoviolin 1) (from UniProt Q86TM6 1-617)
- binding: binds
